Results as given in article PMC7819943, “Rice protein-binding microarrays: a tool to detect cis-acting elements near promoter regions in rice”.
The list shows a part of the results.

Sequences of proteins named here, by UniProt entry; tags and fusion partners are left off.
UniProt Q0JBA9, entry or part of it: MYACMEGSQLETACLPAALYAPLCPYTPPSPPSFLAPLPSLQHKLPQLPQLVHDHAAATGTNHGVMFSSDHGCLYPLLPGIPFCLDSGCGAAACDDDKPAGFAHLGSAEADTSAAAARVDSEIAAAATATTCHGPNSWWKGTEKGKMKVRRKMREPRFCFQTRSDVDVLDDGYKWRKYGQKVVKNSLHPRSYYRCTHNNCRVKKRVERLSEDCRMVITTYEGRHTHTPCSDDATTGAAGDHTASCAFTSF

biological target: OsWRKY34 (Oryza sativa, UniProt Q0JBA9 1-250); assay: protein-binding microarray (RPBM); PBS, 2% BSA, 51.3 ng/ul salmon testes DNA, 50 uM zinc acetate, 200 nM TF, 25 C, 1 h; high values mean tight binding; conditions: protein: recombinant; tags: N-terminal polyhistidine and DsRed monomer fusion (pET32a); label: CyDye5-dUTP incorporated in the synthesized complementary strand; 3' TTTTT single-stranded linker to array surface; dsDNA, one strand shown
Method in brief: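 Transcription factors were each fused at the N-terminus to a polyhistidine tag plus DsRed and expressed in E. coli BL21-CodonPlus before Ni–NTA purification. Binding to a double-stranded custom Agilent array was carried out with 200 nM protein at 25 °C for 1 h in PBS, 2% BSA, salmon testes DNA and 50 µM zinc acetate. The binding signal is per-feature fluorescence intensity, in arbitrary units, on an Axon 4000B scanner.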

Row | Sequence | binding signal
1 | TAACCCACGGCAGCGACCTATCATTCCGTCAAGGGCTCGCCGGAGTCACCTAGTGCAG | 8250 fluorescence intensity (a.u.)
2 | TTTGCGCTCTCCGGTTGATCAGCTCCAATTTCTCAACTTCCGGAGTCACCTAGTGCAG | 9170 fluorescence intensity (a.u.)
3 | CTCTCTCTCGTCCTCTTCTATGGCAAGCTTGGACTGTAGACGGAGTCACCTAGTGCAG | 8970 fluorescence intensity (a.u.)
4 | TATATATATATATATATATATATATATATATATGTGTGTGCGGAGTCACCTAGTGCAG | 18100 fluorescence intensity (a.u.)
5 | GACCATGTTGCCCTTGCCAGATTCGACCTTATCCGCTTTCCGGAGTCACCTAGTGCAG | 10500 fluorescence intensity (a.u.)
6 | TTCTCTTTCTGTGTATCGTATGCTTCGCACTTTCTACTTTCGGAGTCACCTAGTGCAG | 8960 fluorescence intensity (a.u.)
7 | TGCGTGTATCCCATTCCCACCCGCCCACCACATATCCTTTCGGAGTCACCTAGTGCAG | 11000 fluorescence intensity (a.u.)
8 | AACAGGAGACTGGCTACTTACTTGCGCTTCTCCATTTCTGCGGAGTCACCTAGTGCAG | 8670 fluorescence intensity (a.u.)
9 | TATACTCTACTATCCATCATCGCCGTTGTGCACAGGGATCCGGAGTCACCTAGTGCAG | 8320 fluorescence intensity (a.u.)
10 | ATAAAAATTAAGGGTGGGCTTAAAGTCGAAGTCAACAAGACGGAGTCACCTAGTGCAG | 10000 fluorescence intensity (a.u.)
11 | GACACATACCTAACAAACTGTGACAGCCACAAGTATGATGCGGAGTCACCTAGTGCAG | 8210 fluorescence intensity (a.u.)
12 | TGTCATCAAATTGGCATTCATAGCGCTATGTTCATATGTTCGGAGTCACCTAGTGCAG | 8430 fluorescence intensity (a.u.)
13 | TCGCTCTGGCGGCCAGCATCTGAGTAGAATATTCTTCCTTCGGAGTCACCTAGTGCAG | 8280 fluorescence intensity (a.u.)
14 | GCCGCCGCATGCCACCTCCTCGCCGCCCGTCGCGTCAACGCGGAGTCACCTAGTGCAG | 9610 fluorescence intensity (a.u.)
15 | TGCTTTTGCTCATGTTTATTGGTGGAATGGACGGTACTCTCGGAGTCACCTAGTGCAG | 10600 fluorescence intensity (a.u.)
16 | ATTGTATTTTTCAACTTCGTGAATTCAGCTATGGTTCAAACGGAGTCACCTAGTGCAG | 8490 fluorescence intensity (a.u.)
17 | TACCTCTCTTTTATTGTCTCCTGTAAAGTTTTATTTATATCGGAGTCACCTAGTGCAG | 13600 fluorescence intensity (a.u.)
18 | CCGCCGCCGCCGCCGCCACCGTCCTGCTGCTTCCGCCGCCCGGAGTCACCTAGTGCAG | 11200 fluorescence intensity (a.u.)
19 | GCTCACTCCATCCCTCAACTGCCCAGTTTCCACGACTCGCCGGAGTCACCTAGTGCAG | 9600 fluorescence intensity (a.u.)
20 | ACCGTCGTCCTCTGCACAAGCCGCCGCGTCCACCCTCTCCCGGAGTCACCTAGTGCAG | 9550 fluorescence intensity (a.u.)
21 | GCGCAACCACCGCTCTCCTTTCTTTTTTTTTTCCTTCTCTCGGAGTCACCTAGTGCAG | 8730 fluorescence intensity (a.u.)
22 | TTGTATTCGATAATATTCGATTCCGTTTTCGTATCCGGGTCGGAGTCACCTAGTGCAG | 9390 fluorescence intensity (a.u.)
23 | CGTTTCACCTGTGTCAATTTTCACTTCACCTTCACTGTCTCGGAGTCACCTAGTGCAG | 8540 fluorescence intensity (a.u.)
24 | TGGGGAGAGTGTGTGCGTGTGTGTGTGTGATTCTCCAATGCGGAGTCACCTAGTGCAG | 8870 fluorescence intensity (a.u.)
25 | GAGACATTGTATCACCGGTCTTGCACTAGCGGAACTTCCGCGGAGTCACCTAGTGCAG | 8470 fluorescence intensity (a.u.)
26 | ATGTCGCCAAGCTCCTTCGCCGCCGTCGCTTGCTACTTCCCGGAGTCACCTAGTGCAG | 10400 fluorescence intensity (a.u.)
27 | CATTTTTTTCCTGCAGGCTCATGAATCCGTGGTCCTGGAGCGGAGTCACCTAGTGCAG | 9090 fluorescence intensity (a.u.)

Row | Sequence | binding signal
28 | TTTTCTTTTTTGGAGTCTATTCCGGTTTAGTTAGTCCCTTCGGAGTCACCTAGTGCAG | 8510 fluorescence intensity (a.u.)
29 | GCTTCTTCCGTTGCAATTCCATTCTCCTCTCTCTCCTGCTCGGAGTCACCTAGTGCAG | 11400 fluorescence intensity (a.u.)
30 | ACGGTGGCGGGGATGTGGAGGGAGGTGCAGGGGTGCGGGGCGGAGTCACCTAGTGCAG | 22600 fluorescence intensity (a.u.)
31 | CACCATACATGTCATCTGCACTGGACCCCTGCGCGATTTCCGGAGTCACCTAGTGCAG | 10600 fluorescence intensity (a.u.)
32 | TCCTGGTCCCAATCCGCCATGCCACCGTCACCGTCACCTCCGGAGTCACCTAGTGCAG | 13400 fluorescence intensity (a.u.)
33 | TTTCAACCAACTACCTACTCTTTTATTTTAGCTTTCTTTTCGGAGTCACCTAGTGCAG | 11000 fluorescence intensity (a.u.)
34 | AATATGCTCTTTATTAAGACTACACGCTTGTCCTAAACTTCGGAGTCACCTAGTGCAG | 8590 fluorescence intensity (a.u.)
35 | CCCATTTCCTTCATACCAGTGATATGTTCATACCAGTACTCGGAGTCACCTAGTGCAG | 9990 fluorescence intensity (a.u.)
36 | GCCGACGACCTGCCCACCTCCGTCCACGACATCTCCGTCACGGAGTCACCTAGTGCAG | 8650 fluorescence intensity (a.u.)
37 | GCTCGGGACCTTATCGCCGTCTCGGCCTCACTCCGGCTGCCGGAGTCACCTAGTGCAG | 8720 fluorescence intensity (a.u.)
38 | TAGTTCAACTATTGCTGCATCGCACCGTCGACTAGTCCCGCGGAGTCACCTAGTGCAG | 10900 fluorescence intensity (a.u.)
39 | ACATTTAATTCCCCAGCTAGCAACCGCCGGCCACCTCTCTCGGAGTCACCTAGTGCAG | 8410 fluorescence intensity (a.u.)
40 | TTTGTTTTTTTTTTCATTTCTGTTGGCTCTTCACATGTACCGGAGTCACCTAGTGCAG | 9510 fluorescence intensity (a.u.)
41 | CTGTATATGTTTAGTCATGCTATGTCTGCCTTTTAGTTTTCGGAGTCACCTAGTGCAG | 10300 fluorescence intensity (a.u.)
42 | CATAACACTGTAGTTTTCTATTTTGCTTGATCTTCTGTATCGGAGTCACCTAGTGCAG | 8150 fluorescence intensity (a.u.)
43 | CCTTTTGTTTTTGGGGCTTGTAGTTTTTGGAAATTTGGGGCGGAGTCACCTAGTGCAG | 18300 fluorescence intensity (a.u.)
44 | TGGGCATTTCGCGTATGATTATGGTTCTTTTTGCACAGCTCGGAGTCACCTAGTGCAG | 9360 fluorescence intensity (a.u.)
45 | AACAATTCTGTAACTTCTATTTTTTTCCTTTGACTTCCCACGGAGTCACCTAGTGCAG | 8720 fluorescence intensity (a.u.)
46 | GGGCCCATGTTGCCAGCCGACGCCGTCCACCCATTCCTTACGGAGTCACCTAGTGCAG | 10100 fluorescence intensity (a.u.)
47 | GGTTATACCTCCCGACACCGGCTGTCCACTTCGCTCTGCTCGGAGTCACCTAGTGCAG | 9160 fluorescence intensity (a.u.)
48 | CCCCGTTCACGCTGCGCCACCGCCTCCGCCTCCGTCGACTCGGAGTCACCTAGTGCAG | 10500 fluorescence intensity (a.u.)
49 | TCGTGACAAAGTTACTTCCGTTTTGTTTTTAGATATTTTTCGGAGTCACCTAGTGCAG | 8160 fluorescence intensity (a.u.)
50 | ACTGCCGCTACCCTCTCTTTAGTCCCGGTTATTTCACCTGCGGAGTCACCTAGTGCAG | 8280 fluorescence intensity (a.u.)
51 | CCTGCTTGCTCTTTCGCTTTCCTCTCTGCATAGCTTGCAACGGAGTCACCTAGTGCAG | 9070 fluorescence intensity (a.u.)
52 | TTCTAACTCACACGTGTACTTTTATATTTAATATATTTATCGGAGTCACCTAGTGCAG | 8760 fluorescence intensity (a.u.)
53 | TAGCCAAACCGGCCCGCTCTTCTGATCCACATCCCGTCGACGGAGTCACCTAGTGCAG | 9090 fluorescence intensity (a.u.)
54 | TAGCTGTTGCAATCGTCCCTATTTTCTTCCGTTTGGCCGTCGGAGTCACCTAGTGCAG | 8300 fluorescence intensity (a.u.)

Reprinted at random: 3 entries already listed
Row | Sequence | binding signal
51 | CCTGCTTGCTCTTTCGCTTTCCTCTCTGCATAGCTTGCAACGGAGTCACCTAGTGCAG | 9070 fluorescence intensity (a.u.)
54 | TAGCTGTTGCAATCGTCCCTATTTTCTTCCGTTTGGCCGTCGGAGTCACCTAGTGCAG | 8300 fluorescence intensity (a.u.)
29 | GCTTCTTCCGTTGCAATTCCATTCTCCTCTCTCTCCTGCTCGGAGTCACCTAGTGCAG | 11400 fluorescence intensity (a.u.)
